Results as given in the supplement of paper PMC12067093, “Discovery and optimisation of a covalent ligand for TRIM25 and its application to targeted protein ubiquitination” (Chemical Science, 2025).
The list shows a part of the results.

The chains behind the UniProt entries cited, without tags or fusion partners. Where a name states a change or a piece, a line headed by the entry shows the natural chain unless it says otherwise.
UniProt P50440: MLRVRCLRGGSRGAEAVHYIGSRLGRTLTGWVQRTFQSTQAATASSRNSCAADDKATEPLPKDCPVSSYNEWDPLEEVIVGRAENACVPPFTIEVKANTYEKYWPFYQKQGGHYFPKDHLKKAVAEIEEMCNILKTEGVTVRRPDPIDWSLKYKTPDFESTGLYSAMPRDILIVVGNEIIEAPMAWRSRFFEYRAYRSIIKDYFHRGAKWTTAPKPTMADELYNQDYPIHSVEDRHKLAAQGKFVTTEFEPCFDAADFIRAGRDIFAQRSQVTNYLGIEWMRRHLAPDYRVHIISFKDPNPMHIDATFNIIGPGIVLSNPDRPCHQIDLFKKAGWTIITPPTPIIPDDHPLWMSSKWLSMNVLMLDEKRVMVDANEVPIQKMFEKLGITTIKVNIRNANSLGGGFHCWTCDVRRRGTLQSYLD
UniProt P07902: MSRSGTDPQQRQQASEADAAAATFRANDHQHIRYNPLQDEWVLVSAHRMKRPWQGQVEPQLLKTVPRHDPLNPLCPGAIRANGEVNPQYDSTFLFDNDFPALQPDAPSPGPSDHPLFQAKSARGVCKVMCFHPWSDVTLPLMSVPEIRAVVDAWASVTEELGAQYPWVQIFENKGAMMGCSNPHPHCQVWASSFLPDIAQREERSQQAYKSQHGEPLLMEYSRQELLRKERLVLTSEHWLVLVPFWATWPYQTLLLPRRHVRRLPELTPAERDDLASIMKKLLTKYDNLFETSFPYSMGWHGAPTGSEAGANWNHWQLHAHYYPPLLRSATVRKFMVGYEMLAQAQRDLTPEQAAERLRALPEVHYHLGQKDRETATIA
UniProt Q8TEQ6: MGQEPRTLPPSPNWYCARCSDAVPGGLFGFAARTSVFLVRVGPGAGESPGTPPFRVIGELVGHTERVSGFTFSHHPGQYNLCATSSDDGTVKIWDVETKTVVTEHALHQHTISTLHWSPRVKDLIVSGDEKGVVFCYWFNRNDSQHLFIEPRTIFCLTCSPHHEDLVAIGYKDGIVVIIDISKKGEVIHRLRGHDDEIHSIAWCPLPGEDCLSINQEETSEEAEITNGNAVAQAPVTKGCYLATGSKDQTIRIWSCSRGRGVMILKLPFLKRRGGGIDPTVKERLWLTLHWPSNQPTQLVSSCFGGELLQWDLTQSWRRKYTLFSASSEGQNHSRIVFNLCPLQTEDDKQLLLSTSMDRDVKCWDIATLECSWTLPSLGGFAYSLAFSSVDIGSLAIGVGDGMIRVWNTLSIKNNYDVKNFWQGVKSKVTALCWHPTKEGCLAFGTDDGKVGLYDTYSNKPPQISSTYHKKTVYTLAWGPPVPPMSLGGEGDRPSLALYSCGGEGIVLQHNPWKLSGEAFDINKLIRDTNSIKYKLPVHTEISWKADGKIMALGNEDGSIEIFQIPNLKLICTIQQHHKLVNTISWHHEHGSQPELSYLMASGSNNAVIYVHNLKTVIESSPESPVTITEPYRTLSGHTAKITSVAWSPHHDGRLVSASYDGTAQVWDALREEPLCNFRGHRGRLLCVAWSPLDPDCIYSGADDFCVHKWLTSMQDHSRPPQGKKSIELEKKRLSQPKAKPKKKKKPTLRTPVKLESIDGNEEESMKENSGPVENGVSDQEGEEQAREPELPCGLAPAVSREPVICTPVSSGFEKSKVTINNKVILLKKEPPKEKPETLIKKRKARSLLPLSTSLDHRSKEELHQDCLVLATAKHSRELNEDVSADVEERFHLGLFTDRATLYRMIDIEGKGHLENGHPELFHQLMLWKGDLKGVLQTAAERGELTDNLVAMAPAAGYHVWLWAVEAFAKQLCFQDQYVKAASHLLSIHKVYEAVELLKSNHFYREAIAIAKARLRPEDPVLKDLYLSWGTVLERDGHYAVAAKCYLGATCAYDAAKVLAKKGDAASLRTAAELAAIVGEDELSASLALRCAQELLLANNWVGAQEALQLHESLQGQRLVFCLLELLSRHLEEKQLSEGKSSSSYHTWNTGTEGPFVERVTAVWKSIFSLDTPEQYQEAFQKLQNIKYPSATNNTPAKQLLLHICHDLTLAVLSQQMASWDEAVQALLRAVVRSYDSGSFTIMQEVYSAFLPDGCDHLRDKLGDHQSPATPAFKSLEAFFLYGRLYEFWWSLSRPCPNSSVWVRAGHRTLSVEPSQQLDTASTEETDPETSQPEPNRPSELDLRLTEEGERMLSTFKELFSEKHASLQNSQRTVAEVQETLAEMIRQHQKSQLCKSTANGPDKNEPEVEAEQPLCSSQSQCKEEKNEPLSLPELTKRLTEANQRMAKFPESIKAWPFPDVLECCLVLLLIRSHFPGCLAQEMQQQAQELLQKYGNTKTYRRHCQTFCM
UniProt Q8WWP7: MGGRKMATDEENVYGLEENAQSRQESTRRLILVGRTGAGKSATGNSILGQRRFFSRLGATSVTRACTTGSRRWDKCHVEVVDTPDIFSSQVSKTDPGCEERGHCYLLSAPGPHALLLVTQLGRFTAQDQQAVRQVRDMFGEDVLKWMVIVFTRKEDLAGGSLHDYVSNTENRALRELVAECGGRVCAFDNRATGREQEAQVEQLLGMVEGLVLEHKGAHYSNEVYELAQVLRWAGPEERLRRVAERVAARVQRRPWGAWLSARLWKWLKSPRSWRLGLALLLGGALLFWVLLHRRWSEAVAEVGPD
UniProt Q92538, whole entry, looked up: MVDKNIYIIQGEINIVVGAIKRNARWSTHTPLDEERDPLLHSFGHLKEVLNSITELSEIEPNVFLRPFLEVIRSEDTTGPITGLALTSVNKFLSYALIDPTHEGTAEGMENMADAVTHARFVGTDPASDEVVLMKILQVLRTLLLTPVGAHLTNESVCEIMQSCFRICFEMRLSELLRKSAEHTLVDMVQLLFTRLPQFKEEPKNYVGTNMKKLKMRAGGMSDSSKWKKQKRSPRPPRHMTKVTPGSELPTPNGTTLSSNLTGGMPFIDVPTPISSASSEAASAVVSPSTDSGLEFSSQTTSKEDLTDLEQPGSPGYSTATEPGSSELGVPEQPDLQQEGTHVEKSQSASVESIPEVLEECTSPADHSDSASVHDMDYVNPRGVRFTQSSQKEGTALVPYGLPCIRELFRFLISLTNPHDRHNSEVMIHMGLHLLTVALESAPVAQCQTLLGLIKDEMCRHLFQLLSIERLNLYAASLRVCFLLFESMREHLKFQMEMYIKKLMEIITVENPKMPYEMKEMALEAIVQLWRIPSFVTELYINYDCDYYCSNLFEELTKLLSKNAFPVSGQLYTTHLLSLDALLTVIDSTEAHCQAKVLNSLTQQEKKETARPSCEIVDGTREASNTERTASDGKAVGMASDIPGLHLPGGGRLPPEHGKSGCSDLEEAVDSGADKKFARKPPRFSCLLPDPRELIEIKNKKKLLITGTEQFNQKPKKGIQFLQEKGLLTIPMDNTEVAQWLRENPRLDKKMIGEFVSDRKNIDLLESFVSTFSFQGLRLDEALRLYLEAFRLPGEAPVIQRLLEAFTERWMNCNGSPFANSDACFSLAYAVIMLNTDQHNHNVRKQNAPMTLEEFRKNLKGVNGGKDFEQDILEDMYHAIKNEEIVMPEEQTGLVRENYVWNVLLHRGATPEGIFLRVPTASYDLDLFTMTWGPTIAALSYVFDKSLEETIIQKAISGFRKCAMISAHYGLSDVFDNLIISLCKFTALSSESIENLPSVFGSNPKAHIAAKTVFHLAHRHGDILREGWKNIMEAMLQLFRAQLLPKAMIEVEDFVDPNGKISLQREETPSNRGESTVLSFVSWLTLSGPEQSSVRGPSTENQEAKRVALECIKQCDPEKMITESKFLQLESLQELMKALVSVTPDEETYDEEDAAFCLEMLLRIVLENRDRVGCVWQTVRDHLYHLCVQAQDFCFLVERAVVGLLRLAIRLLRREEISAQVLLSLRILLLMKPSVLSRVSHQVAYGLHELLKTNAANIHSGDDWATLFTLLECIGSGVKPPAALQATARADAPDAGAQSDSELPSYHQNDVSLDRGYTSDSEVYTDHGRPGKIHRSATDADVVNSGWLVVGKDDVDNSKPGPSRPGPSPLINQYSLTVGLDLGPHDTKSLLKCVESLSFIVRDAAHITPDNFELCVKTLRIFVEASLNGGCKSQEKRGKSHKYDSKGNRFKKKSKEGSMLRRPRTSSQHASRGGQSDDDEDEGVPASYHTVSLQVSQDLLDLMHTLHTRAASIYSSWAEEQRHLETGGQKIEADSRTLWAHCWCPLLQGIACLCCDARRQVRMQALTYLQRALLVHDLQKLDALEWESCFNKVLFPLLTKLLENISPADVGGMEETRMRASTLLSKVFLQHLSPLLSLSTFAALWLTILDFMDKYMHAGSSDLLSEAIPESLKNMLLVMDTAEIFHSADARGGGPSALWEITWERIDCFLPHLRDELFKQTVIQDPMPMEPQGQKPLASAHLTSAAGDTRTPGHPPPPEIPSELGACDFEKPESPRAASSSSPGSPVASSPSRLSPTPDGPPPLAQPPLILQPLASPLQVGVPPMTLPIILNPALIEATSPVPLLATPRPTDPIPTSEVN
UniProt Q96RP9: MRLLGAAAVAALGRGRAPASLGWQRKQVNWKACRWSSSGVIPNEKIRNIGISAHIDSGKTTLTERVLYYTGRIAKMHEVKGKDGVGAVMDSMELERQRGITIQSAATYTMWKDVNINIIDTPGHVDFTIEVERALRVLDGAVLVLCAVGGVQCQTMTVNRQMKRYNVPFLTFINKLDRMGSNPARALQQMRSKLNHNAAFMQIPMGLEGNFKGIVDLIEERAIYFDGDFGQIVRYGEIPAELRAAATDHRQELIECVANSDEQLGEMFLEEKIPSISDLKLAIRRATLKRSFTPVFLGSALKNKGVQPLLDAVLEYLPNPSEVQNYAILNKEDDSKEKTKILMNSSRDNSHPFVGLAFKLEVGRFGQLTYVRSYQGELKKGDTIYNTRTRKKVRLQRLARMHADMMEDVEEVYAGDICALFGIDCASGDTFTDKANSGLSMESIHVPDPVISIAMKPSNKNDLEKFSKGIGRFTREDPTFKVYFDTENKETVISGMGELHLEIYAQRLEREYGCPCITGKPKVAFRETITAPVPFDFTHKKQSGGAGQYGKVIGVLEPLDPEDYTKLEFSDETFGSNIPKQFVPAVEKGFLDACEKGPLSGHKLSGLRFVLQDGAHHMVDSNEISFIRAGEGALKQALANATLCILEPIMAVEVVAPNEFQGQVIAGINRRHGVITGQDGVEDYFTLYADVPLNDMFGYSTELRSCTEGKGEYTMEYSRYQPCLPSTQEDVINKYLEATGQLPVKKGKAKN
UniProt P57678: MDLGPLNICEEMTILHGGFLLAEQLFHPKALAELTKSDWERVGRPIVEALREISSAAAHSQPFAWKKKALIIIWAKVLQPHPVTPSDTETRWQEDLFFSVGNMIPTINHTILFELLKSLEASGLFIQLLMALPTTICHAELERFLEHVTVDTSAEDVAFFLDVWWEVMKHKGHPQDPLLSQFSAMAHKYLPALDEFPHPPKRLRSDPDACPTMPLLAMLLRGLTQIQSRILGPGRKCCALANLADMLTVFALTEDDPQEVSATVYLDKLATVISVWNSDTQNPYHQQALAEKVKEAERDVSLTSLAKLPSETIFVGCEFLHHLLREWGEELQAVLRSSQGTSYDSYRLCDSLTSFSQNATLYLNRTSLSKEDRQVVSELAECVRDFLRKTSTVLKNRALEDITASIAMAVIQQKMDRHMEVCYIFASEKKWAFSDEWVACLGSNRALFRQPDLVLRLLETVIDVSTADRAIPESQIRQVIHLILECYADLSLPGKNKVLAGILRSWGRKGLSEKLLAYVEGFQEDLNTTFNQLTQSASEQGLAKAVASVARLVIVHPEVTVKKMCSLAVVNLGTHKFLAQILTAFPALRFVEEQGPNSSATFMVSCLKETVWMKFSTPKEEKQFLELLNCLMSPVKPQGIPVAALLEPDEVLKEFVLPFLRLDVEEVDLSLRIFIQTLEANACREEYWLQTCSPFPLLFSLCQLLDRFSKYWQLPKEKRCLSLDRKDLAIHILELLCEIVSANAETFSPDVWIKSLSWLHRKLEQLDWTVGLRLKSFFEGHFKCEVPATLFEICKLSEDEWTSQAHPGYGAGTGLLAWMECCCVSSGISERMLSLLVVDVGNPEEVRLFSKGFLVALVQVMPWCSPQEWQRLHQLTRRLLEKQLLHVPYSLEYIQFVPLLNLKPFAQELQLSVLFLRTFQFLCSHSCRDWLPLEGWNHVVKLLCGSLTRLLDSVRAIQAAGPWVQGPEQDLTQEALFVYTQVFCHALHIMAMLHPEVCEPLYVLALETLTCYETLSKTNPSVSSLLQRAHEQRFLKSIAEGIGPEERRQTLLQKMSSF

Compound: Cc1cc(ccc1-c1ccccc1)C(=O)N1CCCN(CC1)C(=O)CCl [compound 10]
Assay: probe-labelled cysteine peptide fold change vs DMSO (competition) (log2 fold change); higher = less target engagement (more negative = stronger competition)
Conditions: THP-1, incubation time: 4 h
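Note: competitive profiling in live THP-1 cells: cysteine peptides tagged with an iodoacetamide desthiobiotin (IA-DTB) probe, intensity after compound treatment relative to DMSO-treated cells.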

Target | probe-labelled cysteine peptide fold change (10 µM) | probe-labelled cysteine peptide fold change (50 µM)
GATM_P50440_131_AVAEIEEMCNILK (UniProt P50440) | 0.1 | 0.368
GGNBP2_Q9H3C7_89+92_EVLSALSQLVPCVGCR (UniProt Q9H3C7) | -0.275 | -0.268
GALT_P07902_75_HDPLNPLCPGAIR (UniProt P07902) | -0.0759 | 0.0445
GEMIN5_Q8TEQ6_341_IVFNLCPLQTEDDK (UniProt Q8TEQ6) | 0.163 | 0.0986
GAPDH_P04406_247_VPTANVSVVDLTCRLEK (UniProt P04406) | -0.552 | -0.788
GDE1_Q9NZC3_327_SYYESHLGSSYITDSMVEDCEPHF (UniProt Q9NZC3) | -0.379 | 0.107
GATAD2B_Q8WXI9_420+423_VEPFVCAQCR (UniProt Q8WXI9) | -0.0475 | -0.391
GATD1_Q8NB37_133_ILQHFHSESKPICAVGHGVAALCCATNEDR (UniProt Q8NB37) | -0.00565 | -0.103
GBA_P04062_381_LFPNTMLFASEACVGSK (UniProt P04062) | 0.215 | -0.0714
GCC2_Q8IWJ2_399_EEQGCVIEK (UniProt Q8IWJ2) | -0.079 | -0.146
GALT_P07902_180+187_GAMMGCSNPHPHCQVWASSFLPDIAQR (UniProt P07902) | 0.00819 | -0.138
GDI1_P31150_302_IICILSHPIK (UniProt P31150) | 0.106 | -0.0443
GIMAP1_Q8WWP7_76_CHVEVVDTPDIFSSQVSK (UniProt Q8WWP7) | 0.0487 | -0.0654
GAN_Q9H2C0_452_TQQWTAICPLK (UniProt Q9H2C0) | -0.0309 | 0.0814
GCDH_Q92947_308_YGIAWGVLGASEFCLHTAR (UniProt Q92947) | -0.0327 | 0.165
GBF1_Q92538_1707_IDCFLPHLRDELFK (UniProt Q92538) | -0.0239 | -0.111
GATM_P50440_407_NANSLGGGFHCWTCDVR (UniProt P50440) | 0.183 | 0.0175
GEMIN5_Q8TEQ6_1421_NEPEVEAEQPLCSSQSQCK (UniProt Q8TEQ6) | 0.068 | -0.124
GFM1_Q96RP9_706_SCTEGK (UniProt Q96RP9) | -0.0868 | 0.111
GEMIN4_P57678_486_QVIHLILECYADLSLPGK (UniProt P57678) | 0.0972 | 0.0728
